Data on two substances can be found in paper doi:10.1101/2025.02.13.638021.

By UniProt entry, the sequences of proteins in these tests, tags left out. Where a name states a change or a piece, a line headed by the entry shows the natural chain unless it says otherwise.
UniProt P84092: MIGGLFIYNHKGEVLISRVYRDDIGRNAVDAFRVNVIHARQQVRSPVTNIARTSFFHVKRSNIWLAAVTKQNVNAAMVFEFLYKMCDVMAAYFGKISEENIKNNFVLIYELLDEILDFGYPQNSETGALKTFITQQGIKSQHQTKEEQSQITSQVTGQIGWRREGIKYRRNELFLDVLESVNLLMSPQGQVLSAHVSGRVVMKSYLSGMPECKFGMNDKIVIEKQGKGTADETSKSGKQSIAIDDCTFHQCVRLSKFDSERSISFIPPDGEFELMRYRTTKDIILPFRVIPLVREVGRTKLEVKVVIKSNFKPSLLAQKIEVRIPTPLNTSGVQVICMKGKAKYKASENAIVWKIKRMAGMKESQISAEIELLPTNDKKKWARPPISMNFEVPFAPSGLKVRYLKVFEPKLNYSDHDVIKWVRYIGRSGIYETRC
UniProt P63010: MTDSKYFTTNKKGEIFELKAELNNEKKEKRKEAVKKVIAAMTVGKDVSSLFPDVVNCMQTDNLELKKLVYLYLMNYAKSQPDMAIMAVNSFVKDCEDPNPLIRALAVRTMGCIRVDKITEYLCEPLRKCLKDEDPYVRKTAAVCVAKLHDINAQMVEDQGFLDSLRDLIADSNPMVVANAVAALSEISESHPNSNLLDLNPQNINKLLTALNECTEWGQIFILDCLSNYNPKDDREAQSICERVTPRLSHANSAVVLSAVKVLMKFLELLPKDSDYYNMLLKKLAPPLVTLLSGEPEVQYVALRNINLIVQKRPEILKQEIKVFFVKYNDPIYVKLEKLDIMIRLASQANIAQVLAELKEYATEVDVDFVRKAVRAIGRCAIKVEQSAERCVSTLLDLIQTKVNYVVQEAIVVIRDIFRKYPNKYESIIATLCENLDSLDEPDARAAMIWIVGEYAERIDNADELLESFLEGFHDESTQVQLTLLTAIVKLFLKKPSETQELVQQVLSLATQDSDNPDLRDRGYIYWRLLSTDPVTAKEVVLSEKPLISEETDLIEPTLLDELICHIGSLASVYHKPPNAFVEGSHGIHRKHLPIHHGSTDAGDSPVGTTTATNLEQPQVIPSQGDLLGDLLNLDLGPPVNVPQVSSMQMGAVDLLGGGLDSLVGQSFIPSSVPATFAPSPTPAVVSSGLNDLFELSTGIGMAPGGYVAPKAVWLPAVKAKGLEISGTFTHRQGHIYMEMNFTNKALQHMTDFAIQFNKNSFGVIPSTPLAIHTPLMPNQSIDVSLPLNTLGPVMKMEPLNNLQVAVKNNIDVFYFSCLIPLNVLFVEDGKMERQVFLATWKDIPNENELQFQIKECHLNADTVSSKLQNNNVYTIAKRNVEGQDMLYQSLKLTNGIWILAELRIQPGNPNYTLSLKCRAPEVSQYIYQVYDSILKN

In assay [1] the target is myc-μ2^S45A (UniProt P84092). The assay is described as follows: co-IP.
Assay [2] addresses myc-μ2^WT (UniProt P84092). Kind of assay: co-IP.
Assay [3] deals with GFP-Avi-tag-βGal [β-galactosidase: P00722]. The assay is described as follows: pull-down.

No constants are given. Whether binding was seen depends on the method and setting. For part of these data: In cells and extracts the contact can be indirect. Some entries that bind do so weakly or less than the wild type.

On to “AP2 β2 subunit (β2 adaptin) (from UniProt P63010 1-937)”, for which the binding result in assay [1] and in assay [2] was “binds” each time. Regarding “recombinant his-tagged μ2 (μ2 subunit of the AP2 adaptor complex) (from UniProt P84092 1-435)”, the binding entry in assay [3] is reported as “no binding (tested: 0.2 mg/ml his-µ2)”.
